Laboratory results from article PMC10925683.
No constants are given. Whether binding was seen depends on the method and setting. In cells and extracts the contact can be indirect. Some binding calls cover weakened binding; strength is not graded here. Tags and fused reporters may be left off the sequences shown.

Protein sequences, listed by entry. Tags and fused reporters are not part of them.
UniProt Q96P20: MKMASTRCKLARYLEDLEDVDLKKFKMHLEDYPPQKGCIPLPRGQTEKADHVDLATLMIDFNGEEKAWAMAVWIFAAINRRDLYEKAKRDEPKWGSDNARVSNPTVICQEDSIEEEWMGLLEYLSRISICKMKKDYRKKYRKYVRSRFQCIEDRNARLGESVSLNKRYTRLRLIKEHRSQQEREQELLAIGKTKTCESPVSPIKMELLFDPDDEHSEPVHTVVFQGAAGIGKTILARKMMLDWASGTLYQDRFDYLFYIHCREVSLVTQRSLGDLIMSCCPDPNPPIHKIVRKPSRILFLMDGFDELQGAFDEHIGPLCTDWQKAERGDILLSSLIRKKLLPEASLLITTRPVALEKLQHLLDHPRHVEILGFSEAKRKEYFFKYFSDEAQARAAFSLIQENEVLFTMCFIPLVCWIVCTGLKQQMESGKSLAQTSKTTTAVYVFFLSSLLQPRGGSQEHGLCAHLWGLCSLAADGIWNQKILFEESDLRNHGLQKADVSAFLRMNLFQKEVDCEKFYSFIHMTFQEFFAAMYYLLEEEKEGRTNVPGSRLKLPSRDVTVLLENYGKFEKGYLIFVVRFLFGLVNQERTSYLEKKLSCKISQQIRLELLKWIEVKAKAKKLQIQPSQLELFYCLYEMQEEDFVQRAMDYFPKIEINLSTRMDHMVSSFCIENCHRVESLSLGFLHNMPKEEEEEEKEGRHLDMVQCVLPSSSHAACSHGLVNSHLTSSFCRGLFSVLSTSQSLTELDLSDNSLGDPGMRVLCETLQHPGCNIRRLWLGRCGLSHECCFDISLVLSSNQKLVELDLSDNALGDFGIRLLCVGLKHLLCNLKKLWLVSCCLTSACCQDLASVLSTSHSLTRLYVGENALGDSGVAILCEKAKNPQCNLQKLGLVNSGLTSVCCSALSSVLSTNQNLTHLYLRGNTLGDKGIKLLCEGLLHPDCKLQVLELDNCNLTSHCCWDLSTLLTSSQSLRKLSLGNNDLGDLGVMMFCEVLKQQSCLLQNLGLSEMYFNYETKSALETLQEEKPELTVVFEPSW
UniProt P29466: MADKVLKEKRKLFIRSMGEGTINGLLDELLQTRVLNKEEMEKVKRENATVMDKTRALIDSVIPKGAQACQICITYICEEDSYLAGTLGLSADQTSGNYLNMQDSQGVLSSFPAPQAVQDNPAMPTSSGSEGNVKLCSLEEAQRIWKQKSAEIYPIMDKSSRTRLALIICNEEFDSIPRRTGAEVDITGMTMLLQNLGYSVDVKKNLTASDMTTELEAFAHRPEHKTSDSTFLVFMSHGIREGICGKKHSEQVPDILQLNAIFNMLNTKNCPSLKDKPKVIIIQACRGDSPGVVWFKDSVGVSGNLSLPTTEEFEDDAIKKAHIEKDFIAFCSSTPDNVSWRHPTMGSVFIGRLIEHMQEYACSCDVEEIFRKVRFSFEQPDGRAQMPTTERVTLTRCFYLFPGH
UniProt Q9ULZ3: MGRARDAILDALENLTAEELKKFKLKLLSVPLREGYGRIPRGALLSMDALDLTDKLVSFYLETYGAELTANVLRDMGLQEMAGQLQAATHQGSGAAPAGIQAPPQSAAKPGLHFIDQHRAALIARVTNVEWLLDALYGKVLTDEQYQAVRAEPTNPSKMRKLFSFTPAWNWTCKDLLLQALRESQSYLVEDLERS

Target: T1, ubiquitin specific protease 50 (Flag-USP50) (UniProt Q70EL3)
T1 sequence: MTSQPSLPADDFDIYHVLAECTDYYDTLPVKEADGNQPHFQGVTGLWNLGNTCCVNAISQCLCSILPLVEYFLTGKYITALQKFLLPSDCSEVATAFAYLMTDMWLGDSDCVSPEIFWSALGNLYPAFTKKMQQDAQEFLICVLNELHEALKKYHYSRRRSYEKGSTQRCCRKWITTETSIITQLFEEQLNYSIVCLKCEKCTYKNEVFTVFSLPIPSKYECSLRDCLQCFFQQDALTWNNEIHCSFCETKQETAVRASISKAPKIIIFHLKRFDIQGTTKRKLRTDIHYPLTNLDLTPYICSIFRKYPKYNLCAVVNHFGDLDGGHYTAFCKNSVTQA
Test: co-IP; lysate of U937 cells stably expressing Flag-USP50 (or vector); anti-FLAG antibody overnight at 4°C, agarose 4 h, washed three times; western blotting of the precipitate

binding | Substance
binds weakly | NLR family pyrin domain containing 3 (NLRP3) (from UniProt Q96P20 1-1036)
no binding | procaspase-1 (from UniProt P29466 1-404)
binds | apoptosis-associated speck-like protein containing CARD (ASC) (from UniProt Q9ULZ3 1-195)
